PubChem BioAssay AID652259 | Drosophila RNAi Screening Center – 2013
The screen tested about 22,000 reagents; this is an unselected part of those with a known target gene and a result. Of all reagents, 233 (1.1%) got an active call. 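Light values are raw, unnormalised plate reads; the ratio scores behind the reporter calls were not deposited.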 Entries without a mark were called inactive. Names joined by + are all predicted targets of the reagent. Not given: the amount of reagent, the time to read-out, the dose of the treatment.

Test: 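Identify new Wingless signalling regulators in fly cells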 (primary screen)
Cell system: Drosophila clone 8 imaginal disc epithelial cells
Reagents: long dsRNA against Drosophila genes
Treatment: pathway stimulated by co-transfected Wingless expression plasmid
Detection: 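Firefly luciferase from a tcf-site Wingless reporter, measured alongside co-transfected Renilla luciferase that tracks transfection; pathway stimulated by a Wingless plasmid; the firefly-to-Renilla ratio is not deposited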
Reading the numbers: firefly reporter light: higher = more Wg reporter light, before normalisation; Renilla control light: higher = more transfected or surviving cells
Hit rule: 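a knock-down is a candidate when at least two out of four statistical tests show it departing from its plate mean; one test alone signals a weak candidate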
Meaning of the calls: active = candidate regulator (raises or lowers reporter); inactive = not a candidate

The opening 2 records, ahead of the listing:
CG31407 [DRSC12761]
- firefly reporter light, replicate 1: 2567
- Renilla control light, replicate 1: 1288

CG32547 [DRSC19263]
- firefly reporter light, replicate 1: 5172
- Renilla control light, replicate 1: 2000

Main list, from the first entry:
CG31407 [DRSC12761]
- firefly reporter light, replicate 1: 2567
- Renilla control light, replicate 1: 1288

CG32547 [DRSC19263]
- firefly reporter light, replicate 1: 5172
- Renilla control light, replicate 1: 2000

CG32547 [DRSC19265]
- firefly reporter light, replicate 1: 5388
- Renilla control light, replicate 1: 2200

CG32547 [DRSC19474]
- firefly reporter light, replicate 1: 22231
- Renilla control light, replicate 1: 10177

CG32547 [DRSC19626]
- firefly reporter light, replicate 1: 17490
- Renilla control light, replicate 1: 7875

CR33317 (pseudo) [DRSC02653]
- firefly reporter light, replicate 1: 3399
- firefly reporter light, replicate 2: 9260
- Renilla control light, replicate 1: 1120
- Renilla control light, replicate 2: 2964

EMC2B (ER membrane protein complex subunit 2B) [DRSC15506]
- firefly reporter light, replicate 1: 8137
- Renilla control light, replicate 1: 2384

CG7653 [DRSC01886]
- firefly reporter light, replicate 1: 2389
- firefly reporter light, replicate 2: 4950
- Renilla control light, replicate 1: 855
- Renilla control light, replicate 2: 2803

CG3513 [DRSC00608]
- firefly reporter light, replicate 1: 3520
- firefly reporter light, replicate 2: 6535
- Renilla control light, replicate 1: 1351
- Renilla control light, replicate 2: 3292

Mco3 (Multicopper oxidase 3) [DRSC15926]
- firefly reporter light, replicate 1: 20326
- Renilla control light, replicate 1: 16744

eff (effete) [DRSC16940]
- firefly reporter light, replicate 1: 18665
- Renilla control light, replicate 1: 3531

CG7785 [DRSC16311]
- firefly reporter light, replicate 1: 11716
- Renilla control light, replicate 1: 2998

His2B:CG33870 + His2B:CG33868 + His2B:CG33882 + 21 more [DRSC03757]
- firefly reporter light, replicate 1: 3164
- firefly reporter light, replicate 2: 7475
- Renilla control light, replicate 1: 272
- Renilla control light, replicate 2: 418

CG4907 [DRSC15673]
- firefly reporter light, replicate 1: 20059
- Renilla control light, replicate 1: 15328

CG2113 [DRSC08554]
- firefly reporter light, replicate 1: 5893
- Renilla control light, replicate 1: 2521

cmet (CENP-meta) [DRSC03511]
- firefly reporter light, replicate 1: 2608
- firefly reporter light, replicate 2: 6891
- Renilla control light, replicate 1: 1062
- Renilla control light, replicate 2: 2688

CG13538 [DRSC04180]
- firefly reporter light, replicate 1: 4064
- firefly reporter light, replicate 2: 6577
- Renilla control light, replicate 1: 886
- Renilla control light, replicate 2: 2416

LpR1 (Lipophorin receptor 1) [DRSC15665]
- firefly reporter light, replicate 1: 2300
- firefly reporter light, replicate 2: 5803
- Renilla control light, replicate 1: 1047
- Renilla control light, replicate 2: 2785

LpR1 (Lipophorin receptor 1) [DRSC15669]
- firefly reporter light, replicate 1: 20704
- Renilla control light, replicate 1: 19352

LpR1 (Lipophorin receptor 1) [DRSC15670]
- firefly reporter light, replicate 1: 18052
- Renilla control light, replicate 1: 14418

CG6329 [DRSC06976]
- firefly reporter light, replicate 1: 14224
- Renilla control light, replicate 1: 3243

Ada2a + Polr2D [DRSC16206]
- firefly reporter light, replicate 1: 14408
- Renilla control light, replicate 1: 3638

Ada2a + Polr2D [DRSC21598]
- firefly reporter light, replicate 1: 1.32e6
- firefly reporter light, replicate 2: 9.69e5
- Renilla control light, replicate 1: 8.17e5
- Renilla control light, replicate 2: 3.45e5

BthD (BthD selenoprotein) [DRSC19395]
- firefly reporter light, replicate 1: 23576
- Renilla control light, replicate 1: 11574

enc (encore) [DRSC08716]
- firefly reporter light, replicate 1: 4208
- Renilla control light, replicate 1: 2245
